# In US20140294819A1 (NVIP, published 2014):
# Chains of the proteins cited; added tags and fusions are not shown. Lines headed by an entry give the natural chain unless they say otherwise; changes in a name come on top. A line that says so, or that is headed by a name, gives the form on record, which may keep a tag or linker.
# soluble recombinant canine high affinity Fc receptor (scaCD64) (Q7YQJ5, form named): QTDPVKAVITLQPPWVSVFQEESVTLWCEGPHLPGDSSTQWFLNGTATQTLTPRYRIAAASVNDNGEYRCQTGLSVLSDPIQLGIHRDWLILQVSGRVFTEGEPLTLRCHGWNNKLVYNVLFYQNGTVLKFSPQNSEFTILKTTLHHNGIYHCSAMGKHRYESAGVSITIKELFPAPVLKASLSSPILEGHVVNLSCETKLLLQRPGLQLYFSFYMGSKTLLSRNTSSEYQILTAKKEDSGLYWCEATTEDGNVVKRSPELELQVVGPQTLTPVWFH
# Positions count from the first letter of the chain named. Results are given in words; binding and its absence hold for the method and conditions named. Some binding calls cover weakened binding; strength is not graded here.
# B1: chimeric mouse-canine RA2, HCB isotype (antibody)
# heavy: QVQLKQSGPGLVPPSQSLSITCTVSGFSLTNYGVHWVRQSPGKGLEWLGVIWSGGTTDYNAAFISRLSISKDNSKSQVFFKMNSLQADDTAIYYCARGPRKFYYYGMDYWGQGTSVTVSSASTTAPSVFPLAPSCGSTSGSTVALACLVSGYFPEPVTVSWNSGSLTSGVHTFPSVLQSSGLYSLSSMVTVPSSRWPSETFTCNVAHPASKTKVDKPVPKRENGRVPRPPDCPKCPAPEMLGGPSVFIFPPKPKDTLLIARTPEVTCVVVDLDPEDPEVQISWFVDGKQMQTAKTQPREEQFNGTYRVVSVLPIGHQDWLKGKQFTCKVNNKALPSPIERTISKARGQAHQPSVYVLPPSREELSKNTVSLTCLIKDFFPPDIDVEWQSNGQQEPESKYRTTPPQLDEDGSYFLYSKLSVDKSRWQRGDTFICAVMHEALHNHYTQESLSHSPGK
# light: DVLMTQTPLSLPVSLGDQASISCRSSQSIVHSNGNTYLEWYLQKPGQSPKLLIYKVSNRFSGVPDRFSGSGSGTDFTLKISRVEAGDLGVYYCFQGLHVPLTFGAGTRLELKRNDAQPAVYLFQPSPDQLHTGSASVVCLLNSFYPKDINVKWKVDGVIQDTGIQESVTEQDKDSTYSLSSTLTMSSTEYLSHELYSCEITHKSLPSTLIKSFQRSECQRVD
# notes: also called chiRA2-B; chimeric RA2
# B2: chimeric mouse-canine RF2, HCB isotype (antibody)
# heavy: B1 heavy with V24I, N31S, K43W, T56S, T57I, F80I, Y105F
# light: B1 light with L3V, S28N, L38V, G86E, L97S, R108K
# notes: also called chiRF2-B; chimeric RF2
# B3: caninised RA2, HCB isotype (antibody)
# heavy: EVQLVQSGGGLVKPTESLTISCVVSGFSLTNYGVHWVRQSPGKGLEWLGVIWSGGTTDYNAAFISRLSISKDNSKSTVFLRMNSLRADDTAIYYCARGPRKFYYYGMDYWGQGTSVTVSSASTTAPSVFPLAPSCGSTSGSTVALACLVSGYFPEPVTVSWNSGSLTSGVHTFPSVLQSSGLYSLSSMVTVPSSRWPSETFTCNVAHPASKTKVDKPVPKRENGRVPRPPDCPKCPAPEMLGGPSVFIFPPKPKDTLLIARTPEVTCVVVDLDPEDPEVQISWFVDGKQMQTAKTQPREEQFNGTYRVVSVLPIGHQDWLKGKQFTCKVNNKALPSPIERTISKARGQAHQPSVYVLPPSREELSKNTVSLTCLIKDFFPPDIDVEWQSNGQQEPESKYRTTPPQLDEDGSYFLYSKLSVDKSRWQRGDTFICAVMHEALHNHYTQESLSHSPGK
# light: B1 light with V2I, L3V, P12S, L15Q, G16E, D17E, Q18E, L88A, R108K
# notes: also called caRA2-B
# B4: caninised RF2, HCB isotype (antibody)
# heavy: B3 heavy with V24I, N31S, T56S, T57I, L80I, Y105F
# light: DIVMTQTPLSLSVSQEEEASISCRSSQNIVHSNGNTYVEWYLQKPGQSPKLLIYKVSNRFSGVPDRFSGSGSGTDFTLKISRVEAEDAGVYYCFQGSHVPLTFGAGTKLELKRNDAQPAVYLFQPSPDQLHTGSASVVCLLNSFYPKDINVKWKVDGVIQDTGIQESVTEQDKDSTYSLSSTLTMSSTEYLSHELYSCEITHKSLPSTLIKSFQRSECQRVD
# notes: also called caRF2-B
# B5: caninised RA2, HCC isotype (antibody)
# heavy: EVQLVQSGGGLVKPTESLTISCVVSGFSLTNYGVHWVRQSPGKGLEWLGVIWSGGTTDYNAAFISRLSISKDNSKSTVFLRMNSLRADDTAIYYCARGPRKFYYYGMDYWGQGTSVTVSSASTTAPSVFPLAPSCGSQSGSTVALACLVSGYIPEPVTVSWNSVSLTSGVHTFPSVLQSSGLYSLSSMVTVPSSRWPSETFTCNVAHPATNTKVDKPVAKECECKCNCNNCPCPGCGLLGGPSVFIFPPKPKDILVTARTPTVTCVVVDLDPENPEVQISWFVDSKQVQTANTQPREEQSNGTYRVVSVLPIGHQDWLSGKQFKCKVNNKALPSPIEEIISKTPGQAHQPNVYVLPPSRDEMSKNTVTLTCLVKDFFPPEIDVEWQSNGQQEPESKYRMTPPQLDEDGSYFLYSKLSVDKSRWQRGDTFICAVMHEALHNHYTQISLSHSPGK
# light: B4 light with N28S, V38L, E86G, S97L
# notes: See note of m19; also called caRA2-C
# B6: caninised RF2, HCC isotype (antibody)
# heavy: B5 heavy with V24I, N31S, T56S, T57I, L80I, Y105F
# light: B4 light
# notes: also called caRF2-C
# Molecular target: soluble recombinant canine high affinity Fc receptor (scaCD64) (canine) (UniProt Q7YQJ5)
# Assay: scaCD64 binding to antibody captured on caCD20 peptide
row,Binder,binding
1,B1,binds
2,B2,binds
3,B3,binds
4,B4,binds
5,B5,binds
6,B6,binds
